Laboratory results: PubChem BioAssay AID1224828 (NIAID, 2016)
In all, the deposit lists about 17,000 reagents; below is a part drawn at random. In the full data, 762 (4.5%) are marked active. 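Active calls include both raised and lowered p65 entry, mostly lowered; wells with fewer than 50 cells lack a z-score.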 Raw values are not corrected between plates.

- Assay: 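Knock-downs that increase or decrease LPS-induced p65 nuclear translocation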 (primary screen)
- Cell system: mouse RAW264.7 G9 macrophage reporter cells (GFP-p65, Tnf promoter-mCherry)
- Reagents: siRNA pool against mouse genes, 100 nM
- Time to read-out: 2 days siRNA transfection, then 40 min LPS before fixation
- Conditions: LPS (Salmonella minnesota R595) at 10 ng/ml
- Detection: 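Imaged p65 nuclear translocation ratio, normalised to the plate median, converted to robust z-scores and averaged across two replicates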
- Direction: p65 translocation robust z-score: higher = more nuclear NF-kappaB p65 after LPS than the plate median; nuclear/cytoplasmic p65 ratio: higher = more nuclear NF-kappaB p65
- Active means: 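Called active when z exceeds 3.3 or falls under -1.56 (median of Tlr4 controls), giving activity score of at least 50; no calls for control wells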
- Meaning of the calls: active = hit (p65 shift raised or lowered); inactive = no clear change

| gene | p65 translocation robust z-score | nuclear/cytoplasmic p65 ratio, rep 1 | nuclear/cytoplasmic p65 ratio, rep 2 | low cell count flag | activity call |
| --- | --- | --- | --- | --- | --- |
| Spon2 (GeneID 100689) | -0.99 | 1.34 | 1.08 | enough cells to score | inactive |
| Hoxa13 (GeneID 15398) | 0.64 | 1.62 | 1.36 | enough cells to score | inactive |
| Crip1 (GeneID 12925) | 0.91 | 1.62 | 2.03 | enough cells to score | inactive |
| Ms4a7 (GeneID 109225) | 0.82 | 1.83 | 1.64 | enough cells to score | inactive |
| Vps37c (GeneID 107305) | 1.63 | 1.66 | 1.58 | enough cells to score | inactive |
| Mpz (GeneID 17528) | 0.57 | 1.54 | 1.39 | enough cells to score | inactive |
| Slpi (GeneID 20568) | -0.51 | 1.47 | 1.43 | enough cells to score | inactive |
| Sox7 (GeneID 20680) | -0.25 | 1.39 | 1.2 | enough cells to score | inactive |
| Actrt1 (GeneID 73360) | -0.4 | 1.45 | 1.72 | enough cells to score | inactive |
| Pdha1 (GeneID 18597) | 1.12 | 1.54 | 1.61 | enough cells to score | inactive |

Targets listed so far whose gene name begins with M or m (2):
| gene | p65 translocation robust z-score | nuclear/cytoplasmic p65 ratio, rep 1 | nuclear/cytoplasmic p65 ratio, rep 2 | low cell count flag | activity call |
| --- | --- | --- | --- | --- | --- |
| Ms4a7 (GeneID 109225) | 0.82 | 1.83 | 1.64 | enough cells to score | inactive |
| Mpz (GeneID 17528) | 0.57 | 1.54 | 1.39 | enough cells to score | inactive |

Continued:
| gene | p65 translocation robust z-score | nuclear/cytoplasmic p65 ratio, rep 1 | nuclear/cytoplasmic p65 ratio, rep 2 | low cell count flag | activity call |
| --- | --- | --- | --- | --- | --- |
| Prkra (GeneID 23992) | 1.63 | 2.03 | 1.51 | enough cells to score | inactive |
| Inhbc (GeneID 16325) | -0.08 | 1.51 | 1.33 | enough cells to score | inactive |
| Als2 (GeneID 74018) | 0.94 | 1.78 | 1.74 | enough cells to score | inactive |
| Amd1 (GeneID 11702) | -1.13 | 1.46 | 1.49 | enough cells to score | inactive |
| Tmc5 (GeneID 74424) | – | 1.42 | 1.14 | fewer than 50 cells per well; well left out of scoring | inactive |
| Usp24 (GeneID 329908) | 0.39 | 1.63 | 1.71 | enough cells to score | inactive |
| Gmps (GeneID 229363) | -0.94 | 1.28 | 1.28 | enough cells to score | inactive |
| Ccdc54 (GeneID 69339) | -0.03 | 1.53 | 1.42 | enough cells to score | inactive |
| Pithd1 (GeneID 66193) | 0.97 | 1.63 | 1.63 | enough cells to score | inactive |
| Atp6v1d (GeneID 73834) | -0.54 | 1.58 | 1.49 | enough cells to score | inactive |
| Rnf41 (GeneID 67588) | 0.06 | 1.42 | 1.23 | enough cells to score | inactive |
| Elf5 (GeneID 13711) | 0.2 | 1.58 | 1.31 | enough cells to score | inactive |
| Pla2g2a (GeneID 18780) | – | 1.55 | 1.42 | fewer than 50 cells per well; well left out of scoring | inactive |
| Iqce (GeneID 74239) | -0.36 | 1.32 | 1.4 | enough cells to score | inactive |
